Experimental data reported in paper PMC5553161.
No constants are given. Whether binding was seen depends on the method and setting. Binding seen in cells or lysates may run through a third protein. A yes stands for co-enrichment or nearness to the bait. Other partners may have been found.

Columns and labels:
[1] = target: One-Strep-tagged (OST) NS5A S225D of hepatitis C virus JFH-1 (genotype 2a) (hepatitis C virus JFH-1 (genotype 2a)); experiment: affinity purification with mass spectrometry; OST-tagged NS5A captured on Strep-Tactin Sepharose beads from 2 mg clarified lysate of SGR-harboring Huh7 cells (TAP lysis buffer: 50 mM Tris-HCl pH 7.5, 100 mM NaCl, 5% glycerol, 0.2% Nonidet P-40, 1.5 mM MgCl2; Benzonase), 60 min at 4°C; label-free LC-MS/MS, four purifications for each bait
[2] = target: One-Strep-tagged (OST) wild-type NS5A of hepatitis C virus JFH-1 (genotype 2a) (hepatitis C virus JFH-1 (genotype 2a)); experiment: as above

B1: bridging integrator 1 (protein, UniProt O00499 1-593)
chain: MAEMGSKGVTAGKIASNVQKKLTRAQEKVLQKLGKADETKDEQFEQCVQNFNKQLTEGTRLQKDLRTYLASVKAMHEASKKLNECLQEVYEPDWPGRDEANKIAENNDLLWMDYHQKLVDQALLTMDTYLGQFPDIKSRIAKRGRKLVDYDSARHHYESLQTAKKKDEAKIAKPVSLLEKAAPQWCQGKLQAHLVAQTNLLRNQAEEELIKAQKVFEEMNVDLQEELPSLWNSRVGFYVNTFQSIAGLEENFHKEMSKLNQNLNDVLVGLEKQHGSNTFTVKAQPSDNAPAKGNKSPSPPDGSPAATPEIRVNHEPEPAGGATPGATLPKSPSQLRKGPPVPPPPKHTPSKEVKQEQILSLFEDTFVPEISVTTPSQFEAPGPFSEQASLLDLDFDPLPPVTSPVKAPTPSGQSIPWDLWEPTESPAGSLPSGEPSAAEGTFAVSWPSQTAEPGPAQPAEASEVAGGTQPAAGAQEPGETAASEAASSSLPAVVVETFPATVNGTVEGGSGAGRLDLPPGFMFKVQAQHDYTATDTDELQLKAGDVVLVIPFQNPEEQDEGWLMGVKESDWNQHKELEKCRGVFPENFTERVP
- binding [1]: binds
- binding [2]: binds
